From the supplement of paper PMC10849652
Some of the results follow.

Sequences of proteins named here, by UniProt entry; tags and fusion partners are left off. A change or cut given only in a name is not applied to a line headed by its entry.
UniProt Q9BWG6: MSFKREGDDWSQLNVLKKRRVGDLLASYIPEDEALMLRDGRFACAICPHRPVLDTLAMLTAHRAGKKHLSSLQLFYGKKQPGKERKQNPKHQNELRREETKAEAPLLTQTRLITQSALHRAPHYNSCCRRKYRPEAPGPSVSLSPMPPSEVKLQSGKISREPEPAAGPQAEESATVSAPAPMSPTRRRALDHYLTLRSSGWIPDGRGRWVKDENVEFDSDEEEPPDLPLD
UniProt O75056, whole entry, looked up: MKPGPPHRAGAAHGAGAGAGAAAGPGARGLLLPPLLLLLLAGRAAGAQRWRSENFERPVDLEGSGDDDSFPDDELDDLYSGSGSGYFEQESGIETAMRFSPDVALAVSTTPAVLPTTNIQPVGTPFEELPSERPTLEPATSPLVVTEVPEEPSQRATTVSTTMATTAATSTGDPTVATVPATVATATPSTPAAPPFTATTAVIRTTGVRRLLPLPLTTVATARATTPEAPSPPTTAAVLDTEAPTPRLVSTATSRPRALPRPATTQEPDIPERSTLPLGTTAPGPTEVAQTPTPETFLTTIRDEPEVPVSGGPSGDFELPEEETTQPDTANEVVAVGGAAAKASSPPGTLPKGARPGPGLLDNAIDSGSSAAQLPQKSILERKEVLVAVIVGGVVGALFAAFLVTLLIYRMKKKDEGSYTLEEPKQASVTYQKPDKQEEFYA
UniProt Q68CR1: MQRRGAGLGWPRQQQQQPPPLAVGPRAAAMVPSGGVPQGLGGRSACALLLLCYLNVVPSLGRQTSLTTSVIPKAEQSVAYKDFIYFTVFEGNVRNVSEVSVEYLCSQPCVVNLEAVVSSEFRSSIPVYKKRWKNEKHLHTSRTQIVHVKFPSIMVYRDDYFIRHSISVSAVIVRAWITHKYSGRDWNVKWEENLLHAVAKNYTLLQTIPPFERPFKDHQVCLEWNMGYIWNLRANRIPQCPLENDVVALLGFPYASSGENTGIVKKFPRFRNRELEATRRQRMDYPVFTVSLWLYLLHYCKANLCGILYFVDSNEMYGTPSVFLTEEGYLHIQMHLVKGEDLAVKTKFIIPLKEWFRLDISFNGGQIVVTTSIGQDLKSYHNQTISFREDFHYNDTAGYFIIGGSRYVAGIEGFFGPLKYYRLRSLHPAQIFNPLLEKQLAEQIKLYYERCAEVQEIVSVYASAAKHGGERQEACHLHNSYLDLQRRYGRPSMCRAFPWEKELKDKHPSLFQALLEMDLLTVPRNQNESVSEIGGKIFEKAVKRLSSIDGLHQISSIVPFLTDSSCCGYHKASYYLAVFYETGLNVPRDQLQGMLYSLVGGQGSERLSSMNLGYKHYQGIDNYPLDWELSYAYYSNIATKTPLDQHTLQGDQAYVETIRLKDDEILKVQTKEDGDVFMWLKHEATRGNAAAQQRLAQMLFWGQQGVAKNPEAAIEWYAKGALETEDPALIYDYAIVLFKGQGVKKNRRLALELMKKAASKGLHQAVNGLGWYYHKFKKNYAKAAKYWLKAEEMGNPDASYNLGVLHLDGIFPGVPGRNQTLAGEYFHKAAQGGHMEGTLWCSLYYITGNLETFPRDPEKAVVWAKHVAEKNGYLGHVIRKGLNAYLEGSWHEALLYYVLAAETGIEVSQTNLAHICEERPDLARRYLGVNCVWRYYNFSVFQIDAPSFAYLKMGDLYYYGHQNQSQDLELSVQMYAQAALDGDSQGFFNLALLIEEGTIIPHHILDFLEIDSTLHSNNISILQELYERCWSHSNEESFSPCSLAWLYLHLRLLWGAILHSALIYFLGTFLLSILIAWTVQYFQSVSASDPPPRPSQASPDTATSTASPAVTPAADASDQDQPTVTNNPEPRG
UniProt Q14108: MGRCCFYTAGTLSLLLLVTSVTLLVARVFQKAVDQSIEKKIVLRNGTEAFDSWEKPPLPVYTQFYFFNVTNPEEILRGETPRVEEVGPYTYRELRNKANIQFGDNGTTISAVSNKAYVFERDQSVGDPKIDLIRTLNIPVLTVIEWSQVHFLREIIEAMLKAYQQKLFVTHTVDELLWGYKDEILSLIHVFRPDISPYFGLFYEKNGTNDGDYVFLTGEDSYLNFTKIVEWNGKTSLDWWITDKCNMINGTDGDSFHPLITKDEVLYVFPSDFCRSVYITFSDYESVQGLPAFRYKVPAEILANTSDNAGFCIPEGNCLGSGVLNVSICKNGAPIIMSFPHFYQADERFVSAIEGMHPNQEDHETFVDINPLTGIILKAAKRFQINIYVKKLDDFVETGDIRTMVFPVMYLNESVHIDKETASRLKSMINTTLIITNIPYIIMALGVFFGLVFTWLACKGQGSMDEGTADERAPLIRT
UniProt O00560: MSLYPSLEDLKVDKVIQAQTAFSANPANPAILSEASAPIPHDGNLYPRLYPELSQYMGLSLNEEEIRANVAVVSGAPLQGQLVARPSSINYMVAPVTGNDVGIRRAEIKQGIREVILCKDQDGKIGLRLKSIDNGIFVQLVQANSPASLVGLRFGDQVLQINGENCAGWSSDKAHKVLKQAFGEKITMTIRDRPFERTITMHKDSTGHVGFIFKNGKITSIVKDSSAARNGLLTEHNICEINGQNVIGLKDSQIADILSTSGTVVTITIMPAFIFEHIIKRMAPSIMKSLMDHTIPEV
UniProt Q9H4L4: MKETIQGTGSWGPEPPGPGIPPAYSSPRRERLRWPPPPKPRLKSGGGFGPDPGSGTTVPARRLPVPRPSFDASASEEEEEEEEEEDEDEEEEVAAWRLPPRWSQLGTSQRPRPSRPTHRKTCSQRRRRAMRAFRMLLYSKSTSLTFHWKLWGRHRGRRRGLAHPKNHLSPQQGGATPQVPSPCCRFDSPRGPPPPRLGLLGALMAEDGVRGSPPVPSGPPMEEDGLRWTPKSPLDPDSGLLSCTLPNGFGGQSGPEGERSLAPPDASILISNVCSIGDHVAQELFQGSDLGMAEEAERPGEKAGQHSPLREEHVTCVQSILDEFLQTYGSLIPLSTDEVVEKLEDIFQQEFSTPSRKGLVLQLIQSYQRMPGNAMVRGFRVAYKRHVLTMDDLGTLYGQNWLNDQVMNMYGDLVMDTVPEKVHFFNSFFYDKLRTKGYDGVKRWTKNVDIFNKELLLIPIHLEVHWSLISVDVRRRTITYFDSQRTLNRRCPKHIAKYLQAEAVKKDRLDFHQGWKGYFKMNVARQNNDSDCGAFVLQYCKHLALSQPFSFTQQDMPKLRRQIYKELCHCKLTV
UniProt Q9UPW6: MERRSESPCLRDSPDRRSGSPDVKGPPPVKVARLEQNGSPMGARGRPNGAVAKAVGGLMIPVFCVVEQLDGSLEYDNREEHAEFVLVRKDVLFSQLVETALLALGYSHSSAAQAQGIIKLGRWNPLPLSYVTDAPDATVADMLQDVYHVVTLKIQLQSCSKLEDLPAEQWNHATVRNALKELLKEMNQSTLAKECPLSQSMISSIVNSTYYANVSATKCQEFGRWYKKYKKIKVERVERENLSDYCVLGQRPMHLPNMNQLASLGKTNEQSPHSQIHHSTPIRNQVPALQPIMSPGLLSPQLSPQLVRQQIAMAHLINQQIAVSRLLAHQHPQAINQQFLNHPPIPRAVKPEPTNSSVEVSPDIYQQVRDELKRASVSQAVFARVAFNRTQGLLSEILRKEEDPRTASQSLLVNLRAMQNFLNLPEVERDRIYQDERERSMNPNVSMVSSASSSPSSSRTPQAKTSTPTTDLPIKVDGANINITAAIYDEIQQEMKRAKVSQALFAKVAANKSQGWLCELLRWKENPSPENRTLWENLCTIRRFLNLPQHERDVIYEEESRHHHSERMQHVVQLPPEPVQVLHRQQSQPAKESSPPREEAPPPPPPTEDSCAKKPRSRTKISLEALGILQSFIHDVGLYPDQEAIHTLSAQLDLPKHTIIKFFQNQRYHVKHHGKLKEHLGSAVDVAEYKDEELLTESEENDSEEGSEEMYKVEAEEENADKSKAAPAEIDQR
UniProt Q9C0D9, whole entry, looked up: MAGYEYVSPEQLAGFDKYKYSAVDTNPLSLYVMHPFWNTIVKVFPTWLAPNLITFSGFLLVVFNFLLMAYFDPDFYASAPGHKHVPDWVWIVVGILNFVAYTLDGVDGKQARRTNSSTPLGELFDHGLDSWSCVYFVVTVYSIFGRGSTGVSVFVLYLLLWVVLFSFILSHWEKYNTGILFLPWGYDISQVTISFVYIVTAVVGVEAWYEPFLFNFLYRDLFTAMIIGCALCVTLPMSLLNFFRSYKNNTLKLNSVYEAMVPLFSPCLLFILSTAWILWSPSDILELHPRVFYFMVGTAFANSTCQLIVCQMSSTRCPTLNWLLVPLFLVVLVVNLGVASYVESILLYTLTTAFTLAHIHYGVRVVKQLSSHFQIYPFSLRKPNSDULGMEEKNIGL
UniProt Q8WWX9, whole entry, looked up: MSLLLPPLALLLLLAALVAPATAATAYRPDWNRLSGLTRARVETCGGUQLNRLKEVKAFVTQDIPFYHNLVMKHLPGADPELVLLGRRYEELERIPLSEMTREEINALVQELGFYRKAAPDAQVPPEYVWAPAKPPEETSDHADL
UniProt O75556: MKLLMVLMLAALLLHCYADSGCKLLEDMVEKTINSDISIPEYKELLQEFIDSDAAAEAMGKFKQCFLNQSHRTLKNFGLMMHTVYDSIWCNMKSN
UniProt Q92503: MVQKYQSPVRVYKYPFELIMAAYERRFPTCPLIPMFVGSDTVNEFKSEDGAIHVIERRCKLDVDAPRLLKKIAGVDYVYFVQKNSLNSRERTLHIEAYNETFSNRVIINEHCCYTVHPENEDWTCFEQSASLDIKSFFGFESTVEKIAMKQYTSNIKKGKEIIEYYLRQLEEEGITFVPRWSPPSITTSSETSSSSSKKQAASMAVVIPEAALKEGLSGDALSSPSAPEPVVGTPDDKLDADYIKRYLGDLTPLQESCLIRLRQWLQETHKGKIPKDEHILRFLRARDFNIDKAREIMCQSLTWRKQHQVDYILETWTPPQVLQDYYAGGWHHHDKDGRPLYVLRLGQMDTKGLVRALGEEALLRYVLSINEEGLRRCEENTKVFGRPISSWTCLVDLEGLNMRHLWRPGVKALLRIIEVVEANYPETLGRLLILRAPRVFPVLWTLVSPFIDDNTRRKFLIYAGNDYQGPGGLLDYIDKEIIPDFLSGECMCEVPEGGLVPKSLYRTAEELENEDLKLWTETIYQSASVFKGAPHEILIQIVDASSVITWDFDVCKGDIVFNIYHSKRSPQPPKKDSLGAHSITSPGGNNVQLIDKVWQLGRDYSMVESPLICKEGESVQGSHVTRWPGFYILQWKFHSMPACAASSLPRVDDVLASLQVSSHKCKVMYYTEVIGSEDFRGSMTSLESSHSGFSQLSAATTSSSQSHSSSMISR
UniProt O75845: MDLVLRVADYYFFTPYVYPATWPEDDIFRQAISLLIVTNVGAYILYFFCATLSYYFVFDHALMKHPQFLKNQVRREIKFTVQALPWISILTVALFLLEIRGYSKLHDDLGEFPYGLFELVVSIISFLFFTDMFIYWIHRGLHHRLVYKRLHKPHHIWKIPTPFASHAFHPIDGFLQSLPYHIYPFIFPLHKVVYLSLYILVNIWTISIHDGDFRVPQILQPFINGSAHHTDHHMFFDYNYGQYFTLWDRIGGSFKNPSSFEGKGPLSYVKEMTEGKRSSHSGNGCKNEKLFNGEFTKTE
UniProt Q9H4B6: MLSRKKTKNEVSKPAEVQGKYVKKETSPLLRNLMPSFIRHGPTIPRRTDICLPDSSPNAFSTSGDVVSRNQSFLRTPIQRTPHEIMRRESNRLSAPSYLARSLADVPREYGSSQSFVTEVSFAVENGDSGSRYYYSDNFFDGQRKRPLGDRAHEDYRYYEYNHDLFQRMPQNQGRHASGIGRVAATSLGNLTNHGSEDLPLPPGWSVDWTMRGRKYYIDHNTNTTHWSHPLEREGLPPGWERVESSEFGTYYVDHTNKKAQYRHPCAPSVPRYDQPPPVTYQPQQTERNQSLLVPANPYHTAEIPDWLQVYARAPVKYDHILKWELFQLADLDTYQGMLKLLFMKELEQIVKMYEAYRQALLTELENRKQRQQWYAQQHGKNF
UniProt Q9NZV5, whole entry, looked up: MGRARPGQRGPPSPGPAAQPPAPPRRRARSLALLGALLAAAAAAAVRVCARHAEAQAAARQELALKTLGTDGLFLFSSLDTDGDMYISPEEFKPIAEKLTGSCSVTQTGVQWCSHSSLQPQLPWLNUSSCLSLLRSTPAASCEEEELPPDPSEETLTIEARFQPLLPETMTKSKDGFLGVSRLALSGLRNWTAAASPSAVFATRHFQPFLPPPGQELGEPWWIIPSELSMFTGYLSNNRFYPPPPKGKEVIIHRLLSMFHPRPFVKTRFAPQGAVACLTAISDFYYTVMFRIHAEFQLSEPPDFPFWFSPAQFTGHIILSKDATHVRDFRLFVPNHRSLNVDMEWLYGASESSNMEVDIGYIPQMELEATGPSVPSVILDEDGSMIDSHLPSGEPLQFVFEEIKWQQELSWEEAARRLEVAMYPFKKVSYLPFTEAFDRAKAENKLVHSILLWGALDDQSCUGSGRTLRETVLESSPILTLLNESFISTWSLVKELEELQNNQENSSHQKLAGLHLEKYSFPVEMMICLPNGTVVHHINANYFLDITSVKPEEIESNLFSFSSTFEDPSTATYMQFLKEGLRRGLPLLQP

How the values were obtained:
Assay in all cases: log2 fold change, soluble protein after heating vs DMSO (PISA); higher = thermal stabilisation; K562 lysate, 10 uM; active = over 0.2 and 3.5 SD of the protein, either way, in both replicates (recomputed)
erlotinib = compound: C#Cc1cccc(Nc2ncnc3cc(OCCOC)c(OCCOC)cc23)c1 [erlotinib]
In short: (§1)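 A 30 min treatment with 10 μM compound was applied to crude K562 extract at 1 mg/mL protein in PBS pH 7.4 with 1 mM MgCl2. Heating for 3 min spanned 48°C-58°C, after which aliquots were pooled, adjusted to 0.5% NP-40 at 4°C and spun at 21,000xg for 90 min. TMTpro 16plex LC-MS/MS of the supernatant, with channel sums equalised, gave values recorded as log-two fold change in thermal stability against solvent controls, from duplicates.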

[1] = compound: C1=CC(=CC=C1C2=NC3=C(N2)C=C(C=C3)C(=O)N)OC4=CC=C(C=C4)Cl
In short: as §1

[2] = compound: C1=CC=C(C=C1)C2=NC(=C(N2)C3=CC=NC=C3)C4=CC(=C(C=C4)Cl)O
In short: as §1

[3] = compound: C1CCN(C1)C(=O)NC2=CC=CC(=C2)NC3=NC=C(C(=N3)NCCC4=CN=CN4)Br
In short: as §1

[4] = compound: C1CN(CCC1(CC2=CC=C(C=C2)Cl)N)C3=NC=NC4=C3C=CN4
In short: as §1

IRAK-1-4 Inhibitor I = compound: C1COCCN1CCN2C3=CC=CC=C3N=C2NC(=O)C4=CC(=CC=C4)[N+](=O)[O-] [IRAK-1-4 Inhibitor I]
In short: as §1

[5] = compound: CC(=O)c1cnc2ccc(-c3cc(Cl)c(O)c(Cl)c3)nc2c1N[C@H]1CC[C@H](CN(C)C)CC1
In short: as §1

ralimetinib = compound: CC(C)(C)Cn1c(N)nc2ccc(-c3[nH]c(C(C)(C)C)nc3-c3ccc(F)cc3)nc21 [ralimetinib]
In short: as §1

[6] = compound: CC(C)(O)CC(=O)NCCn1ccc2ncnc(Nc3ccc(Oc4cccc(C(F)(F)F)c4)c(Cl)c3)c21
In short: as §1

[7] = compound: CC(C)C1=C2N=C(C=C(N2N=C1)NCC3=CC=CC=C3)NCCCCCCN
In short: as §1

[8] = compound: CC1=C(C(CC(=O)N1)C2=CC=C(C=C2)C(F)(F)F)C(=O)NC3=C(C=C4C(=C3)C=NN4)F
In short: as §1

[9] = compound: CC1=C(C2=C(C=C1)C(=O)C3=CC=CC=C3N2CCCN)C
In short: as §1

[10] = compound: CC1=C(C=C(C=C1)NC(=O)C2=CC(=CC=C2)C(C)(C)C#N)NC3=CC4=C(C=C3)N=CN(C4=O)C
In short: as §1

[11] = compound: CC1=C(C=C(C=C1)NC(=O)C2=CC(=CC=C2)N(C)C)NC(=O)C3=CC=C(C=C3)O
In short: as §1

[12] = compound: CC1=CC=C(C=C1)SC2=C3C=C(SC3=CN=C2)C(=O)N
In short: as §1

[13] = compound: C1=CC2=NC=CN=C2C=C1/C=C/3\C(=O)NC(=O)S3
In short: as §1

ibrutinib = compound: C=CC(=O)N1CCC[C@@H](n2nc(-c3ccc(Oc4ccccc4)cc3)c3c(N)ncnc32)C1 [ibrutinib]
In short: as §1

[14] = compound: C/C(=N\NC(=O)C1=CC(=CC=C1)S(=O)(=O)N2CCOCC2)/C3=C(C=CC(=C3)Cl)O
In short: as §1

[15] = compound: C1=CC2=C(C=CC(=C2)/C=C\3/C(=O)NC(=NCC4=CC=CS4)S3)N=C1
In short: as §1

[16] = compound: C1=CC=C2C(=C1)C3=NNC4=CC=CC(=C43)C2=O
In short: as §1

Measured: log2 fold change

SCNM1 (UniProt Q9BWG6)
inactive: erlotinib 0.045 | [1] 0.044 | [2] -0.005 | [3] -0.054 | [4] -0.158 | IRAK-1-4 Inhibitor I -0.021 | [5] -0.026 | ralimetinib 0.013 | [6] 0.012 | [7] 0.062 | [8] 0.065 | [9] -0.189 | [10] 0.06 | [11] -0.069 | [12] -0.221

SEC31A (UniProt H0YAB3)
inactive: erlotinib 0.029 | [1] 0.003 | [13] -0.019 | [2] -0.002 | IRAK-1-4 Inhibitor I -0.003 | ibrutinib 0.001 | [5] -0.003 | ralimetinib -0.033 | [6] 0.015 | [7] -0.064 | [8] 0.008 | [9] -0.029 | [11] -0.01 | [12] -0.082

SDHB, A0A087WWT1
inactive: erlotinib 0.012 | [14] -0.146 | [1] -0.169 | [15] -0.006 | [2] 0.181 | [16] -0.091 | [3] 0.066 | [4] 0.014 | IRAK-1-4 Inhibitor I -0.043 | [5] -0.011 | ralimetinib -0.011 | [6] 0.113 | [7] 0.109 | [8] -0.038 | [9] 0.067 | [10] 0.08 | [11] 0.054 | [12] 0.042

SDCCAG8 (UniProt S4R323)
inactive: erlotinib -0.347 | [1] 0.103 | [2] 0.007 | IRAK-1-4 Inhibitor I -0.082 | ralimetinib 0.067 | [6] 0.031 | [7] 0.467 | [10] -0.021 | [11] 0.023

SDC3 (UniProt O75056)
inactive: erlotinib -0.11 | [1] 0.047 | [2] 0.096 | IRAK-1-4 Inhibitor I 0.062 | ralimetinib 0.107 | [6] 0.015 | [7] -0.133 | [9] 0.128 | [10] 0.066 | [11] 0.033

SEL1L3 (UniProt Q68CR1)
inactive: erlotinib 0.001 | [14] 0.108 | [1] -0.016 | [15] 0.015 | [13] 0.028 | [2] -0.01 | [16] -0.087 | [3] 0 | [4] 0.004 | IRAK-1-4 Inhibitor I -0.019 | ibrutinib 0.042 | ralimetinib 0.008 | [6] 0.012 | [7] -0.038 | [8] 0.141 | [9] -0.098 | [10] 0.092 | [11] -0.016

SEC11A (UniProt P67812)
inactive: erlotinib 0.021 | [14] 0.006 | [1] -0.046 | [15] 0.013 | [13] 0.002 | [2] -0.016 | [16] -0.03 | [3] -0.05 | [4] -0.006 | IRAK-1-4 Inhibitor I -0.001 | ibrutinib -0.032 | [5] -0.015 | ralimetinib -0.004 | [6] -0.025 | [7] -0.045 | [8] 0.032 | [9] 0.034 | [10] 0.012 | [11] 0.019 | [12] -0.021

SAGE1 (UniProt Q9NXZ1)
inactive: erlotinib 0.007 | [1] 0.133 | [2] 0.026 | [3] -0.038 | [4] -0.072 | IRAK-1-4 Inhibitor I 0.064 | ralimetinib 0.006 | [6] 0.009 | [7] -0.084 | [8] 0.007 | [9] -0.164 | [10] -0.003 | [11] -0.054

SAE1 (UniProt M0R286)
inactive: erlotinib -0.006 | [14] -0.061 | [1] 0.078 | [15] -0.151 | [16] 0.015 | [3] -0.088 | [4] -0.001 | [5] -0.101 | [7] 0.008 | [9] 0.063 | [12] -0.012

SAP130 isoform 3 (UniProt Q9H0E3)
inactive: erlotinib 0.038 | [14] -0.108 | [1] -0.062 | [15] 0.052 | [2] 0.046 | [16] -0.084 | [3] -0.113 | [4] 0.052 | IRAK-1-4 Inhibitor I 0.169 | [5] -0.032 | ralimetinib -0.096 | [6] -0.091 | [7] 0.005 | [9] -0.033 | [10] -0.019 | [11] 0.035 | [12] -0.016

Quoted from the results shown (2 entries):
SEC11A (UniProt P67812)
inactive: erlotinib 0.021 | [14] 0.006 | [1] -0.046 | [15] 0.013 | [13] 0.002 | [2] -0.016 | [16] -0.03 | [3] -0.05 | [4] -0.006 | IRAK-1-4 Inhibitor I -0.001 | ibrutinib -0.032 | [5] -0.015 | ralimetinib -0.004 | [6] -0.025 | [7] -0.045 | [8] 0.032 | [9] 0.034 | [10] 0.012 | [11] 0.019 | [12] -0.021

SAGE1 (UniProt Q9NXZ1)
inactive: erlotinib 0.007 | [1] 0.133 | [2] 0.026 | [3] -0.038 | [4] -0.072 | IRAK-1-4 Inhibitor I 0.064 | ralimetinib 0.006 | [6] 0.009 | [7] -0.084 | [8] 0.007 | [9] -0.164 | [10] -0.003 | [11] -0.054

Next part:

SCARB2 (UniProt Q14108)
inactive: erlotinib -0.052 | [14] 0.022 | [1] 0.024 | [15] 0.024 | [13] 0.004 | [2] 0.017 | [16] 0.048 | [3] 0.029 | [4] -0.065 | IRAK-1-4 Inhibitor I 0.004 | ibrutinib -0.009 | [5] -0.023 | ralimetinib -0.012 | [6] -0.019 | [7] -0.045 | [8] 0.026 | [9] -0.025 | [10] 0.017 | [11] 0.008 | [12] -0.025

SASH1 (UniProt O94885)
inactive: erlotinib -0.015 | [1] -0.07 | [13] 0.004 | [2] 0.076 | [3] 0.002 | [4] -0.022 | IRAK-1-4 Inhibitor I -0.038 | ibrutinib 0.008 | [5] -0.014 | ralimetinib -0.024 | [6] 0 | [7] -0.004 | [8] -0.083 | [9] 0.002 | [10] 0.025 | [11] 0.019 | [12] -0.02

SDCBP isoform 2 (UniProt O00560)
inactive: erlotinib -0.224 | [1] 0 | [13] -0.017 | [2] -0.032 | IRAK-1-4 Inhibitor I -0.062 | ibrutinib 0.209 | ralimetinib 0.043 | [6] -0.059 | [7] -0.124 | [8] -0.077 | [9] 0.002 | [10] -0.094 | [11] -0.106

SENP3 (UniProt Q9H4L4)
inactive: erlotinib 0.081 | [14] -0.019 | [1] -0.083 | [15] 0.026 | [16] 0.217 | [3] 0.455 | [4] -0.171 | [5] 0.231 | [7] 0.157 | [9] -0.094 | [10] 0.002 | [12] 0.183

SATB2 (UniProt Q9UPW6)
inactive: erlotinib -0.019 | [14] -0.044 | [1] 0.022 | [15] -0.01 | [2] -0.006 | [16] 0.031 | [3] -0.033 | [4] 0.009 | IRAK-1-4 Inhibitor I 0.027 | [5] -0.005 | ralimetinib 0.037 | [6] -0.004 | [7] -0.029 | [8] -0.007 | [9] -0.023 | [10] -0.027 | [11] 0.002 | [12] 0.047

SELENOI (UniProt Q9C0D9)
inactive: erlotinib -0.079 | [1] 0.039 | [13] -0.115 | [2] 0.017 | [3] -0.049 | [4] 0.209 | IRAK-1-4 Inhibitor I 0.009 | ibrutinib 0.037 | [5] -0.053 | ralimetinib -0.162 | [6] -0.065 | [7] -0.029 | [9] 0.065 | [10] 0.035 | [11] -0.062 | [12] 0.071

SDHD (UniProt O14521)
inactive: erlotinib -0.054 | [14] -0.065 | [1] -0.029 | [15] -0.003 | [2] -0.091 | [16] 0.102 | [3] -0.184 | [4] -0.108 | IRAK-1-4 Inhibitor I -0.018 | [5] -0.016 | ralimetinib 0.023 | [6] -0.006 | [7] 0.042 | [8] -0.082 | [9] -0.005 | [10] 0.039 | [11] 0.012 | [12] 0.034

SCAND1 (UniProt P57086)
inactive: [2] 0.108 | IRAK-1-4 Inhibitor I 0.008 | ralimetinib -0.192 | [6] 0.204 | [10] -0.03 | [11] 0.037

SELENOM (UniProt Q8WWX9)
inactive: [2] -0.043 | IRAK-1-4 Inhibitor I 0.072 | [5] 0.209 | ralimetinib -0.123 | [6] -0.016 | [10] 0.1 | [11] 0.077 | [12] 0.038

SCGB2A1 (UniProt O75556)
inactive: [5] 0.046 | [12] -0.229

SEC14L1 isoform 2 (UniProt Q92503)
inactive: [14] -0.087 | [15] 0.04 | [16] -0.13 | [5] -0.251 | [12] -0.154

SC5D (UniProt O75845)
inactive: [3] -0.028 | [4] 0.087 | [5] 0.044 | [10] 0.006 | [12] 0.021

SAV1 (UniProt Q9H4B6)
inactive: [8] -0.087

SAFB2 (UniProt K7EQU4)
inactive: [13] 0.038 | ibrutinib 0.135 | [8] -0.028 | [9] -0.05 | [10] 0.101

SALL1 (UniProt Q9NSC2)
inactive: [3] -0.011 | [4] 0.033 | [8] -0.17

SBNO2 (UniProt Q9Y2G9)
inactive: [14] 0.011 | [15] -0.068 | [16] -0.023

SELENON (UniProt Q9NZV5)
inactive: erlotinib 0.117 | [1] -0.111 | [7] 0.066 | [9] -0.054
